This is one part of the list.
Key:
Test in all cases: log2 fold change, soluble protein after heating vs DMSO (PISA); higher = thermal stabilisation; K562 cells, 10 uM, 30 min; active = over 0.2 and 3.5 SD of the protein, either way, in both replicates (recomputed)
[1] = compound: C1=CC=C(C=C1)[C@H](COC2=CC3=C(C=C2)NC(=O)N3)NC(=O)C4=CC=CN(C4=O)CC5=CC(=C(C=C5)F)F
How it was run: (§1)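 Soluble protein was defined as the supernatant after 21,000xg for 90 min. It came from K562 cells at 2×10^6 cells/mL given 10 μM compound for 30 min, heated in aliquots for 3 min across 48°C-58°C, pooled, and extracted in PBS with 0.5% NP-40 at 4°C, and was quantified by TMTpro 16plex LC-MS/MS with equalised channel sums. Thermal stability against control samples, from duplicates, is reported as log2 fold change.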

Chains of the proteins cited; added tags and fusions are not shown. Lines headed by an entry give the natural chain unless they say otherwise; changes in a name come on top.
UniProt Q53T59: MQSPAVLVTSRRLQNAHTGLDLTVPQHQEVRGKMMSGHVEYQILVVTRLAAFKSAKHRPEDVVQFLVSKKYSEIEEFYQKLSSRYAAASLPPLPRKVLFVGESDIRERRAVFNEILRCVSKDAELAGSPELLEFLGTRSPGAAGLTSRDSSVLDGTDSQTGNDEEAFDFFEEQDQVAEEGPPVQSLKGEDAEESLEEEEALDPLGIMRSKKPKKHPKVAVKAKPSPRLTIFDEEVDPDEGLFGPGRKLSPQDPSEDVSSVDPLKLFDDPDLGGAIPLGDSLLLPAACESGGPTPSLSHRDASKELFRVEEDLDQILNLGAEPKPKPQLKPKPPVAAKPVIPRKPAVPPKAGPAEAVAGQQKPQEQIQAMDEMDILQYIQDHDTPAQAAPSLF
UniProt Q5SSJ5: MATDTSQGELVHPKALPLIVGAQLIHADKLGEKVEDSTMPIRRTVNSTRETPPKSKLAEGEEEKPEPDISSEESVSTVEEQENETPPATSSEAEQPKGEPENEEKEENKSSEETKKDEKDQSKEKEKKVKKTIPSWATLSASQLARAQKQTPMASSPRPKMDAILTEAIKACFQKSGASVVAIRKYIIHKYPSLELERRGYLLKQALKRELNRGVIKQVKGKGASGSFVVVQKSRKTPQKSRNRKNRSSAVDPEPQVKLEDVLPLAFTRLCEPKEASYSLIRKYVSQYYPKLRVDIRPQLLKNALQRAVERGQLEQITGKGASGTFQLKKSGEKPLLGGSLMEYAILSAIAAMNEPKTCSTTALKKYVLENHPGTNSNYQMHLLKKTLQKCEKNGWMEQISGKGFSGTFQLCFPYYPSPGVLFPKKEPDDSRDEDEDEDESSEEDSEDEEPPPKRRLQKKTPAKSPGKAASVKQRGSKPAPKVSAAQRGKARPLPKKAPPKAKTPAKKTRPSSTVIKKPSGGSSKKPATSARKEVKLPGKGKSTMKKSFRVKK
UniProt Q659A1: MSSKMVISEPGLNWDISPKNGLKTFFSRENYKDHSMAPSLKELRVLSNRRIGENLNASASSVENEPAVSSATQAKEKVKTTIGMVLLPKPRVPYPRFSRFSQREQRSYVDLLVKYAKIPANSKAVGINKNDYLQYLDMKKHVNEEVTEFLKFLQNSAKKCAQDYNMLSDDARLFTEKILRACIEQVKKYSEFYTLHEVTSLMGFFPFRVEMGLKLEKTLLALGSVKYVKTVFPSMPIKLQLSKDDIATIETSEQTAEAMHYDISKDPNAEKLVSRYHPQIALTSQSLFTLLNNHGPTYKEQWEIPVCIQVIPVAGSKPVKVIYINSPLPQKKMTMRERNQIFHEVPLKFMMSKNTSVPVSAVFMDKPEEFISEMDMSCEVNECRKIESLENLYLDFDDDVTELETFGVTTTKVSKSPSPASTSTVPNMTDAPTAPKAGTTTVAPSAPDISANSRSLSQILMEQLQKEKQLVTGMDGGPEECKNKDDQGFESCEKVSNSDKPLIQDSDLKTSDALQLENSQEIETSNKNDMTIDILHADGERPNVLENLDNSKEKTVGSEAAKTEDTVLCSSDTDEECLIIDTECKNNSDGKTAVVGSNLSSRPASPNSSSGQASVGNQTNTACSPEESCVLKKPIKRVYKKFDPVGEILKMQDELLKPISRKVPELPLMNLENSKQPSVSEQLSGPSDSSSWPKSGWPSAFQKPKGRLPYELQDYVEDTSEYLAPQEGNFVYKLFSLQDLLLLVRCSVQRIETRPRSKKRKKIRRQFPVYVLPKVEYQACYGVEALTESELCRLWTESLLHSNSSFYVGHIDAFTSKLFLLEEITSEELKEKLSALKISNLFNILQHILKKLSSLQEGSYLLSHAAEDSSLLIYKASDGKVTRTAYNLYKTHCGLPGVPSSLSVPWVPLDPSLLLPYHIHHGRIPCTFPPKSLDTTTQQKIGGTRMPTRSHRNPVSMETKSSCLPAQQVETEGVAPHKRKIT
UniProt P51659: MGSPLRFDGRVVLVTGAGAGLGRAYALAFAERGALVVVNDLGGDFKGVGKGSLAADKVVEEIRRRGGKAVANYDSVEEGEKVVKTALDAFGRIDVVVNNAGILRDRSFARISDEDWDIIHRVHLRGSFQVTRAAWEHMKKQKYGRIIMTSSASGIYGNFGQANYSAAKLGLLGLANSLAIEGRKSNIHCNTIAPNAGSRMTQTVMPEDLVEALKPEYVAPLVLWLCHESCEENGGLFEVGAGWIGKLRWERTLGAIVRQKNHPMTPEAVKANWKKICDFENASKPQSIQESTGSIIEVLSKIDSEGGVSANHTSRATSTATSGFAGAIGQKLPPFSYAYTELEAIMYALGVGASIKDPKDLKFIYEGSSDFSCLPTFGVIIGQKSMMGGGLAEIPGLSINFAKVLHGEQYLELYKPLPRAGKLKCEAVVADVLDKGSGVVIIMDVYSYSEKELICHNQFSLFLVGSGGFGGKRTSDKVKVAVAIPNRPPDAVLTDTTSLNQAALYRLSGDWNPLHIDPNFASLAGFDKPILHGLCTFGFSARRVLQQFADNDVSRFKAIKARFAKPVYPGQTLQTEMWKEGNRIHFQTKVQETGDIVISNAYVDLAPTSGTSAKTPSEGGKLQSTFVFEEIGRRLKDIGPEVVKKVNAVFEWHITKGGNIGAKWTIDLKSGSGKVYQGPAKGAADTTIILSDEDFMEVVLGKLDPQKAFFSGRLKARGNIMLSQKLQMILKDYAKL
UniProt P31937: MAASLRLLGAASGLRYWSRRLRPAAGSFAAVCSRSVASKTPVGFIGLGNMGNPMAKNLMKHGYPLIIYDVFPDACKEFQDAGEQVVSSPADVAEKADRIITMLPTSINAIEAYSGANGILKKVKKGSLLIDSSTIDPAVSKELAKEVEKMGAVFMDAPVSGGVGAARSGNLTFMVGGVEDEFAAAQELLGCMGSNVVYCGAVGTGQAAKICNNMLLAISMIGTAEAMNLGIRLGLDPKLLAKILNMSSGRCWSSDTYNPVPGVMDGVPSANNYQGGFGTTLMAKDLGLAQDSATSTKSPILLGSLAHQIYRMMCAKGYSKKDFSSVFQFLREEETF
UniProt P00492: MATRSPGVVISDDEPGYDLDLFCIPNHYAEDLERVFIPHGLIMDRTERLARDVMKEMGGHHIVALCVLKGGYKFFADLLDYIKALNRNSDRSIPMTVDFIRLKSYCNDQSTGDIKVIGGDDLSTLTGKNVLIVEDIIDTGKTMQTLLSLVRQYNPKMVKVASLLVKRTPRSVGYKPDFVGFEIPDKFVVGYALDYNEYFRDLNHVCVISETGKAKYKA
UniProt Q9BUJ2: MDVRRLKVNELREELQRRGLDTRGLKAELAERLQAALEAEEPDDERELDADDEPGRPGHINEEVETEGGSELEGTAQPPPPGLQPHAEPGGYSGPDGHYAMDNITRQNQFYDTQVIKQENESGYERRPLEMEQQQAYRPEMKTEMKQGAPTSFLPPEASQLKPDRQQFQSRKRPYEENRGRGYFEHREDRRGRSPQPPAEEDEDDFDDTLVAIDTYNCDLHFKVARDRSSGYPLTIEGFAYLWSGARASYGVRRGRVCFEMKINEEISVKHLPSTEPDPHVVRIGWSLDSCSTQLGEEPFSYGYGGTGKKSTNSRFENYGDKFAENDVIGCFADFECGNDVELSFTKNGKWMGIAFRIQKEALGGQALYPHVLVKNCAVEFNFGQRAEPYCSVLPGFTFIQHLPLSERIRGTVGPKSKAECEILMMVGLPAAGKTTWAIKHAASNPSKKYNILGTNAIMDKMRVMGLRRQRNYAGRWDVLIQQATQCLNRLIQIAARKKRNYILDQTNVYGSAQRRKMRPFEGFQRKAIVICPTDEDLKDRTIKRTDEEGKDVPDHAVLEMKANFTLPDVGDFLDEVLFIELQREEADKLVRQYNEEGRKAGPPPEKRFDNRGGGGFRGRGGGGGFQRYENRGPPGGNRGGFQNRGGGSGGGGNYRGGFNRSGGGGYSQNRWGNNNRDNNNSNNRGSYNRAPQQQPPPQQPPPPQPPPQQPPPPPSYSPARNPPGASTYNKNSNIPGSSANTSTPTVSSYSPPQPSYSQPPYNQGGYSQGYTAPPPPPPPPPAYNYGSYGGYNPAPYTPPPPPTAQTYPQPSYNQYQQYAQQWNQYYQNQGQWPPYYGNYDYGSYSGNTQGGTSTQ
UniProt Q14103: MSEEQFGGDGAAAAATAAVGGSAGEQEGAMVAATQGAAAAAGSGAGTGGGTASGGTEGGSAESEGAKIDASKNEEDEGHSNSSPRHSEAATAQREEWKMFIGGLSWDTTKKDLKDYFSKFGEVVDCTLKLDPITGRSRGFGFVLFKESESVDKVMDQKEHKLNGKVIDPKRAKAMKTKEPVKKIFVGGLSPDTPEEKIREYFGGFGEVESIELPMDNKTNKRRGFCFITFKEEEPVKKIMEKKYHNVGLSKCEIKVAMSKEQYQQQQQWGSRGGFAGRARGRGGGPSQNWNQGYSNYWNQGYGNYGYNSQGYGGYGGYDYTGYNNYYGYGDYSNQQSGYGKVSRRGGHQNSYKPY

[2] = compound: CC1=C(SC2=C1C(=N[C@H](C3=NN=C(N32)C)CC(=O)N)C4=CC=C(C=C4)Cl)C
How it was run: as §1

[3] = compound: CC1=C2C(=CC=C1)N=C(N(C2=O)C3=CC=CC=C3C)CN4C=NC5=C(N=CN=C54)N
How it was run: as §1

[4] = compound: c1ccc([C@@H]2C[C@H]2NC2CCNCC2)cc1
How it was run: as §1

[5] = compound: Cc1sc2c(c1C)C(c1ccc(Cl)cc1)=N[C@@H](CC(=O)OC(C)(C)C)c1nnc(C)n1-2
How it was run: as §1

Measured: log2 fold change

HS1BP3 (UniProt Q53T59)
inactive: [1] -0.046 | [2] 0.087 | [3] -0.001 | [4] -0.203

HP1BP3 (UniProt Q5SSJ5)
inactive: [1] 0.015 | [2] -0.04 | [3] 0.087 | [5] 0.142 | [4] 0.011

ICE2 (UniProt Q659A1)
inactive: [1] -0.008 | [2] 0.122 | [3] 0.049 | [4] 0

Reprinted from the entries so far (2 entries):
HP1BP3 (UniProt Q5SSJ5)
inactive: [1] 0.015 | [2] -0.04 | [3] 0.087 | [5] 0.142 | [4] 0.011

ICE2 (UniProt Q659A1)
inactive: [1] -0.008 | [2] 0.122 | [3] 0.049 | [4] 0

(further entries)

HSD17B4 (UniProt P51659)
inactive: [1] 0.01 | [2] 0.001 | [3] 0.025 | [5] 0.007 | [4] -0.009

HIBADH (UniProt P31937)
inactive: [1] 0.033 | [2] 0.002 | [3] 0.016 | [5] 0.007 | [4] 0.008

HPRT1 (UniProt P00492)
inactive: [1] -0.001 | [2] 0.01 | [3] -0.032 | [5] -0.008 | [4] 0.012

HSPA8 (UniProt E9PK54)
inactive: [1] 0.004 | [2] -0.108 | [3] 0.037 | [5] 0.099 | [4] -0.001

HNRNPUL1 (UniProt Q9BUJ2)
inactive: [1] -0.021 | [2] -0.028 | [3] 0.024 | [5] 0.07 | [4] 0.058

HNRNPD isoform 4 (UniProt Q14103)
inactive: [1] 0.101 | [2] -0.156 | [3] -0.401 | [5] 0.017 | [4] 0.201

From the supplement of paper PMC10849652
